This passage reports binding results from publication doi:10.1101/2022.11.11.516072.

By UniProt entry, the sequences of proteins in these tests, tags left out. Residues count along the entry.
UniProt Q9WV86: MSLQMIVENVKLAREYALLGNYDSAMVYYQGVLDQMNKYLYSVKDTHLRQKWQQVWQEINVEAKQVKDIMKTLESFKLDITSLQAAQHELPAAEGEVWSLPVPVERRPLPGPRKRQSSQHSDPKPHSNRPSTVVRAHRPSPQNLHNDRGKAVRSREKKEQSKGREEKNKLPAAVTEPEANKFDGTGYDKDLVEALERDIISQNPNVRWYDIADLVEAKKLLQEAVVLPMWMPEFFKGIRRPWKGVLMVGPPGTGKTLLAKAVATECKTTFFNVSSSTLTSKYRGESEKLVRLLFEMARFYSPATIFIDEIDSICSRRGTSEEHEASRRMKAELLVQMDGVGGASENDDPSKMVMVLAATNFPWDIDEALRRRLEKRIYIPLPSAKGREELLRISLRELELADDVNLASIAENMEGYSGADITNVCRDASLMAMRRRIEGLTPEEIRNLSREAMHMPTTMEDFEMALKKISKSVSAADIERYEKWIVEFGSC
UniProt Q8K0T4: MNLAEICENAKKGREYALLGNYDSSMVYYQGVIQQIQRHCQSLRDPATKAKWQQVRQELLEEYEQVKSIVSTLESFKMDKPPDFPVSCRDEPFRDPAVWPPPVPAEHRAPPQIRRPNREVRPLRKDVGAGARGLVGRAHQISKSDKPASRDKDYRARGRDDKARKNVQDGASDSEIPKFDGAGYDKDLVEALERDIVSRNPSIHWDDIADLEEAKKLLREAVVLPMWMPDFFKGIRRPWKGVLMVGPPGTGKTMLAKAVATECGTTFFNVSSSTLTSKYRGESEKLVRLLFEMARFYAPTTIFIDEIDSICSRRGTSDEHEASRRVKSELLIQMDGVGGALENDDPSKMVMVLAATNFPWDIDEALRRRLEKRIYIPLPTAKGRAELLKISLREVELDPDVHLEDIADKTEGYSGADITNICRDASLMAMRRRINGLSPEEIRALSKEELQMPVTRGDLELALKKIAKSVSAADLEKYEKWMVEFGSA
UniProt Q8BG40: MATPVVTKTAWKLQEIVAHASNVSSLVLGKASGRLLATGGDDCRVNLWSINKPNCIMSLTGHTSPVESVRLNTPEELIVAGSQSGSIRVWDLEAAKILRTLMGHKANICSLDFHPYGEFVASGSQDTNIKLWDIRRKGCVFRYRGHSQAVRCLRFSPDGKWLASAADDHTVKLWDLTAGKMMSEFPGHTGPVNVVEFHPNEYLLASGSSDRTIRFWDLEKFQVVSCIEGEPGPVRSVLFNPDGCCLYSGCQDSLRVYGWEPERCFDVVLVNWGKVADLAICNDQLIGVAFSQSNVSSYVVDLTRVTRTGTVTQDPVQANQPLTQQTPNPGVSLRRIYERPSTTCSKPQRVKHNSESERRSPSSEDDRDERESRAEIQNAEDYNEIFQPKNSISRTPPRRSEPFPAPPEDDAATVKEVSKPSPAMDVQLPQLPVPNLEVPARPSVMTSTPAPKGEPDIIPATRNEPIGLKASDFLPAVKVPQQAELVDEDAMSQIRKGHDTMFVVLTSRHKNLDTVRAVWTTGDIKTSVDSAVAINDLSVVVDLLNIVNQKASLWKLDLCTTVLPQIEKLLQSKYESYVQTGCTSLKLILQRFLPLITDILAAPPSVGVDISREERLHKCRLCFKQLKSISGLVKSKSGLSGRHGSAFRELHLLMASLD
UniProt F8VPN2: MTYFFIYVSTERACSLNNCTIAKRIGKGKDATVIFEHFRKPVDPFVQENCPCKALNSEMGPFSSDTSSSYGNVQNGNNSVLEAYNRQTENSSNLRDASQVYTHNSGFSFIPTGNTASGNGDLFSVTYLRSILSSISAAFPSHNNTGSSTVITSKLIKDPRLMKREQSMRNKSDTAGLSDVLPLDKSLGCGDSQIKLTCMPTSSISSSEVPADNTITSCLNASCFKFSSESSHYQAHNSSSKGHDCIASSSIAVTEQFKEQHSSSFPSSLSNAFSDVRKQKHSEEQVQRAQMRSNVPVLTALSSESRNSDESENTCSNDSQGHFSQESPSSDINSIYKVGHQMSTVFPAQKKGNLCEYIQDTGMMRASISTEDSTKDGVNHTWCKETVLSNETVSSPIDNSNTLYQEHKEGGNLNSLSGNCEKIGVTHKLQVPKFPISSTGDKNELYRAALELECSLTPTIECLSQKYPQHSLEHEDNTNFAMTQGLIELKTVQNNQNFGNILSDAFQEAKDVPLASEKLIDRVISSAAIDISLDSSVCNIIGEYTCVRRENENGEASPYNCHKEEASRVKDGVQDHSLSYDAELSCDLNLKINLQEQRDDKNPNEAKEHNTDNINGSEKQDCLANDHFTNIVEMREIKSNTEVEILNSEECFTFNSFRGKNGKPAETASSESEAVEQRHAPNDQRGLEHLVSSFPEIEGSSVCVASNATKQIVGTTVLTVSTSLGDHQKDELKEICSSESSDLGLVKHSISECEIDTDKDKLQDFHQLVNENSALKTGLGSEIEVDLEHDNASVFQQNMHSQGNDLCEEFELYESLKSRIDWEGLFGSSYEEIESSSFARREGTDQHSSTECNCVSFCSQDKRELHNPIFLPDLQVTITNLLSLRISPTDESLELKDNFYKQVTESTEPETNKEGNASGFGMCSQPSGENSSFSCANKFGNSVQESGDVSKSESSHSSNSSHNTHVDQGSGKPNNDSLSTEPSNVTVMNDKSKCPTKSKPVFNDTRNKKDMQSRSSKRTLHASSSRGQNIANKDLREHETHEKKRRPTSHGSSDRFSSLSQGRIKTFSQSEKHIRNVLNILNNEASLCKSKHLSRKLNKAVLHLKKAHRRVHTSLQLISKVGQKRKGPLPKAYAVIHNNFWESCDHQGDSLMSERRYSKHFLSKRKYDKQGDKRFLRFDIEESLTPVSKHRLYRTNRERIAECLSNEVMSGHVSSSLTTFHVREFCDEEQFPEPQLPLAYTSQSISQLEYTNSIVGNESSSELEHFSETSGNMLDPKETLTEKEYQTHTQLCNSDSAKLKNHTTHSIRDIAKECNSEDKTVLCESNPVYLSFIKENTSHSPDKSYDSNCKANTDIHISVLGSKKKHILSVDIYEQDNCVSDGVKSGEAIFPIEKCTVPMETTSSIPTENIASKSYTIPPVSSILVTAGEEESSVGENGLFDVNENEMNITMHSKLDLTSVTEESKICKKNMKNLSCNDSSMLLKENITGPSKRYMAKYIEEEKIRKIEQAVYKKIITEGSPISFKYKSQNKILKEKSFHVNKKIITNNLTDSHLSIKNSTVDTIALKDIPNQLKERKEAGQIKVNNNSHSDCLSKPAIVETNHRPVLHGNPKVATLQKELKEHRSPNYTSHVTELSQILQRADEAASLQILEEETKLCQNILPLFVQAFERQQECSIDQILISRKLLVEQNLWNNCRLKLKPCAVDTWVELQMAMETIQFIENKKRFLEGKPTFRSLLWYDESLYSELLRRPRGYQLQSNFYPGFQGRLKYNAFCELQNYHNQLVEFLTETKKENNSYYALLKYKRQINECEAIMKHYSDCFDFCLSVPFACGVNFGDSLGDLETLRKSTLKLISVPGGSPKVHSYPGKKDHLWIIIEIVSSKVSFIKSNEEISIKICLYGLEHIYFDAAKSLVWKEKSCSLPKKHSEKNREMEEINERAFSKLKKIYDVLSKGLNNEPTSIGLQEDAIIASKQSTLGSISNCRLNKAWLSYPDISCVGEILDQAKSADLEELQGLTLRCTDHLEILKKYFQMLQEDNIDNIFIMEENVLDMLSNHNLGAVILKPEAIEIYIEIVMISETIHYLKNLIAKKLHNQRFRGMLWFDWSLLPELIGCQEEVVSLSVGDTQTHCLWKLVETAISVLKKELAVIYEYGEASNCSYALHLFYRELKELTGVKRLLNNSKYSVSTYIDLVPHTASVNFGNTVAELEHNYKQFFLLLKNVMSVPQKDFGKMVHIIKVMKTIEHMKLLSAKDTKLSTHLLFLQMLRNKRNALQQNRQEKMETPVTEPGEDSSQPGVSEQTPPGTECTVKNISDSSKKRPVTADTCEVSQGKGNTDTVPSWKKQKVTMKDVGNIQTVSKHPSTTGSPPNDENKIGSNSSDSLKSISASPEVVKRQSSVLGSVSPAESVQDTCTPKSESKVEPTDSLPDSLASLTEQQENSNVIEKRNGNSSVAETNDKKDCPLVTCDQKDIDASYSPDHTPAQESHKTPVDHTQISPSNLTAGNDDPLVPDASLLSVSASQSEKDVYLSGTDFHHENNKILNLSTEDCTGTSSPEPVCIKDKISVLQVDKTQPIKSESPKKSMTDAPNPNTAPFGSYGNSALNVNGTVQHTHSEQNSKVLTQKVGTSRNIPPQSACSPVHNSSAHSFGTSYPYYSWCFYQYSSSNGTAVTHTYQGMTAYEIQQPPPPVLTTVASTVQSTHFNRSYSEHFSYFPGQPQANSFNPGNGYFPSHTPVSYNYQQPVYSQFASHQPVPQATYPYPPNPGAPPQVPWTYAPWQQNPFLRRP
UniProt Q3V140, residues 26-540: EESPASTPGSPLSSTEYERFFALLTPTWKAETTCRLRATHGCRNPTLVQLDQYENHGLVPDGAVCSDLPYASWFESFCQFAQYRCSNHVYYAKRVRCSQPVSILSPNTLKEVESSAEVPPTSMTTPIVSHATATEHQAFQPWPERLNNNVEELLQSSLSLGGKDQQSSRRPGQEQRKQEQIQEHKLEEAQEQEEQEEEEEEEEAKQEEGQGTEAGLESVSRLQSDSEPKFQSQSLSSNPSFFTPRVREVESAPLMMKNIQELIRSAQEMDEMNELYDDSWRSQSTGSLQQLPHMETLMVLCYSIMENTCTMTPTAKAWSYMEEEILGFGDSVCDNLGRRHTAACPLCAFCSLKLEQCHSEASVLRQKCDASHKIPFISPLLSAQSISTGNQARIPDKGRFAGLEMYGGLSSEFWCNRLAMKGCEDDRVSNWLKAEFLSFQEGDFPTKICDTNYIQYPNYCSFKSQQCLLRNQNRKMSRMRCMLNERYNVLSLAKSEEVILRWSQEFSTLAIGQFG
UniProt O35685: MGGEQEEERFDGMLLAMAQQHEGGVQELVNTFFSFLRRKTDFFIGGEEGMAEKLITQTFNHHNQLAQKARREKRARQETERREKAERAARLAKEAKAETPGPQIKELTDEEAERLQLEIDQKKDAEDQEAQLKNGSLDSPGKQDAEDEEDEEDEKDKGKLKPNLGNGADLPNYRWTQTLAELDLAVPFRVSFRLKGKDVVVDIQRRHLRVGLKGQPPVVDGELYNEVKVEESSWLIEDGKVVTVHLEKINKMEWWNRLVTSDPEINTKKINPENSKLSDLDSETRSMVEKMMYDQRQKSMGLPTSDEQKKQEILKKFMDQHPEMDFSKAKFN
UniProt P17156: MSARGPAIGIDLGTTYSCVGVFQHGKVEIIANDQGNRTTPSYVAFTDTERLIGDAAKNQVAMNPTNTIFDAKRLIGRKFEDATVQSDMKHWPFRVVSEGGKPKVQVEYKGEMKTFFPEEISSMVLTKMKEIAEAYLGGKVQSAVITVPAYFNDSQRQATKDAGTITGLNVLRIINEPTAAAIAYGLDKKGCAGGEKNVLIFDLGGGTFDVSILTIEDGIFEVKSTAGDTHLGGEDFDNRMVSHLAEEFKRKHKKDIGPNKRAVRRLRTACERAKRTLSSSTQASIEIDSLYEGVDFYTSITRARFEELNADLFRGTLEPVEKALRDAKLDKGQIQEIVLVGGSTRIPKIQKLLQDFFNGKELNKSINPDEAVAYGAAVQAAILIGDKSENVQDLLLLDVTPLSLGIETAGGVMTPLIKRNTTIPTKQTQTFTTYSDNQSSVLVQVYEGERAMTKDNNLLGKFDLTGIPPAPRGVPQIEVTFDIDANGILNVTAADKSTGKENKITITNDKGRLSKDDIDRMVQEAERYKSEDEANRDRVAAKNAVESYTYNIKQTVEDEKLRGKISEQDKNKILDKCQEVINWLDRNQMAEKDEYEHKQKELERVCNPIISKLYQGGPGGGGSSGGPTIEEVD
UniProt Q9WUL7: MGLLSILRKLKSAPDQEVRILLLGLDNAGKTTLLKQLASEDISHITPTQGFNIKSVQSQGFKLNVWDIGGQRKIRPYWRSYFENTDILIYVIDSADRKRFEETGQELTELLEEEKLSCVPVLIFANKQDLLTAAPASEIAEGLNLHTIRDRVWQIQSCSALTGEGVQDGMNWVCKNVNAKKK

Read-outs that look alike come from different tables or passages of the source. No constants are given. Whether binding was seen depends on the method and setting. In cells and extracts the contact can be indirect. These calls come from enrichment with a bait or labelling near it, and not all partners need be listed. For some of these results: No binding means not detected with the bait.

Experiment in all cases: affinity purification with mass spectrometry
Assay [1] has as its target KATNA1 (mouse (endogenous in testis)) (UniProt Q9WV86).
Assay [2] addresses KATNAL1 (mouse (endogenous in testis)) (UniProt Q8K0T4).
The target of assay [3] is KATNB1 (mouse (endogenous in testis)) (UniProt Q8BG40).
In assay [4] the target is KATNA1 (mouse (endogenous in testis)) (UniProt Q9WV86). This is another data set of the same source.
For assay [5], the target named is KATNAL1 (mouse (endogenous in testis)) (UniProt Q8K0T4). The source holds these as a separate data set.

With TEX15 (from UniProt F8VPN2 1-2785), the binding result in assay [1] is “binds”.
KATNB1 (from UniProt Q8BG40 1-658): the binding entry in assay [2] is “binds”.
On the same count and under the same terms, next, ACRBP (from UniProt Q3V140 26-540): “binds”.
For the molecule NUDC (from UniProt O35685 1-332), the binding entry in assay [1], in assay [2] and in assay [3] was “binds” throughout.
Regarding HSPA2 (from UniProt P17156 1-633), the binding entry in assay [1] and in assay [3] was “binds” throughout.
Regarding ARL3 (from UniProt Q9WUL7 1-182), the binding entry in assay [1] was “binds”.
Turning to KATNAL1 (from UniProt Q8K0T4 1-488), the results for the binding entry in assay [1] and in assay [3] were “no binding” and “binds”, respectively.
For the molecule CAPZA2 (from UniProt P47754 1-286), the binding entry in assay [1] and in assay [2] was “binds” each time.

B1: KATNAL2 (protein, UniProt Q9D3R6 1-539)
chain: MELSYQTLKLTHQAREAYEMRTEARRKNLLILILHYLTQEGYMDAAKALEEETKLGLRRFEVCDNVDLETILMEYESYYFVKFQKYPKVVKKAPDPVENNLPSRSGGKNKRLTNDSCQNLPKICHQKSRPKTSAVKTGDTKSVKEHLKQVKESVTDTQAESTDFGLNISKIHKDQPEEKAQPRRGQIIDFRGLLSDAIKGATSEFALNTFECNPDPSERLLKPLSAFIGMNSEMRELAAVVSRDIYLHNPNIKWNDIIGLDAAKQLVKEAVVYPIRYPQLFTGILSPWKGLLLYGPPGTGKTLLAKAVATECKTTFFNISASTIVSKWRGDSEKLVRVLFELARYHAPSTIFLDELESVMSQRGMVPGGEHEGSLRMKTELLVQMDGLARSEDLVFVLAASNLPWELDCAMLRRLEKRILVDLPSQEARQAMIYHWLPPVSKNHALELHTQLEYSVLSQETEGYSGSDIKLVCREAAMRPVRKIFSVLENNQSESNNLPGIQLDTVTTQDFLDVLAHTKPSAKNLTERYLAWQEKFESV
Regarding B1, the binding entry in assay [4] and in assay [5] was “no binding” throughout.

B2: DNAAF4 (protein, UniProt Q8R368 1-420)
chain: MPVRVSEFSWQQTPATIFLSLPLRGVCVRDADVFCGESYLKVNFPPFLFELFLYAPIDDGKSKAKIGNDTILFTLYKKEPVLWDSLSVPGVDKEMMQRIREKSILQAQEKAKEATEAKAVAKREDQRYALGEMMKIEEEERKKIEDMKENERKKATSELEAWKECQKKADGQKRVQRKEKPLEGKQAEETKALKPRGLPRKAPPTRLPTRGRNWENIFPEKLKEDRVPAPRSAGSIQISFTPRVFPTALRESQVAEEEEWLHKQAEARRAMSTDLPEFFDLKEEERNPDWLKDKGNKLFATENYLAAVDAYNLAIRLNCKIPLLYLNRAACHLKLKNLHKAIEDSSKALELLTPPVADNANARMKAHVRRGTAFCQLELYVEGLQDYEAALKIDPANTVVQNDAEKIRNIIQGTALKSRD
As for B2, in assay [4], the binding result is given as “binds”.

B3: MYL6 (protein, UniProt Q60605 1-151)
chain: MCDFTEDQTAEFKEAFQLFDRTGDGKILYSQCGDVMRALGQNPTNAEVLKVLGNPKSDEMNVKVLDFEHFLPMLQTVAKNKDQGTYEDYVEGLRVFDKEGNGTVMGAEIRHVLVTLGEKMTEEEVEMLVAGHEDSNGCINYEAFVRHILSG
Take B3: the binding result in assay [4] is “binds”.

B4: FABP9 (protein, UniProt O08716 1-132)
chain: MIEPFLGTWKLISSENFENYVRELGVECEPRKVACLIKPSVSISFNGERMDIQAGSACRNTEISFKLGEEFEETTADNRKVKSLITFEGGSMIQVQKWLGKQTTIKRKIVDGKMVVECTMNNVVSTRIYERV
Consider B4, for which the binding entry in assay [4] and in assay [5] was “binds” throughout.
